Hit rate of the full screen: of about 390,000 compounds, about 4,000 (1%) were called active. This list was built around the results that the source calls inconclusive (neither active nor inactive); the mix of calls is not that of the screen. The call rests on the fitted dose curve; in most records, active means well fitted inhibition curve with a large enough effect; inconclusive means small, poorly fitted or top-dose-only effect, or another doubt; inactive means no such curve, though single readings can be large or run the other way. Potencies beside an inconclusive call are fits to weak or partial responses and may not hold up.
The compounds below were run against DNA polymerase iota (Homo sapiens) (UniProt Q9UNA4) (assay: qHTS for Inhibitors of Polymerase Iota). Conditions: Pol iota fluorescent replication assay, 10 min; series mostly up to 115 µM; activity, negative = inhibition: at the top concentration.
Summary of the method: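 Pol iota at 10 nM preincubated 15 min with compounds at room temperature; reaction started with fluorescent substrate, 50 nM final. Fluorescence read kinetically at 0 and 10 min; buffer-only wells as negative control.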
Potency means the concentration at half of the fitted maximal effect.

The chains behind the UniProt entries cited, without tags or fusion partners. Where a name states a change or a piece, a line headed by the entry shows the natural chain unless it says otherwise.
UniProt Q9UNA4: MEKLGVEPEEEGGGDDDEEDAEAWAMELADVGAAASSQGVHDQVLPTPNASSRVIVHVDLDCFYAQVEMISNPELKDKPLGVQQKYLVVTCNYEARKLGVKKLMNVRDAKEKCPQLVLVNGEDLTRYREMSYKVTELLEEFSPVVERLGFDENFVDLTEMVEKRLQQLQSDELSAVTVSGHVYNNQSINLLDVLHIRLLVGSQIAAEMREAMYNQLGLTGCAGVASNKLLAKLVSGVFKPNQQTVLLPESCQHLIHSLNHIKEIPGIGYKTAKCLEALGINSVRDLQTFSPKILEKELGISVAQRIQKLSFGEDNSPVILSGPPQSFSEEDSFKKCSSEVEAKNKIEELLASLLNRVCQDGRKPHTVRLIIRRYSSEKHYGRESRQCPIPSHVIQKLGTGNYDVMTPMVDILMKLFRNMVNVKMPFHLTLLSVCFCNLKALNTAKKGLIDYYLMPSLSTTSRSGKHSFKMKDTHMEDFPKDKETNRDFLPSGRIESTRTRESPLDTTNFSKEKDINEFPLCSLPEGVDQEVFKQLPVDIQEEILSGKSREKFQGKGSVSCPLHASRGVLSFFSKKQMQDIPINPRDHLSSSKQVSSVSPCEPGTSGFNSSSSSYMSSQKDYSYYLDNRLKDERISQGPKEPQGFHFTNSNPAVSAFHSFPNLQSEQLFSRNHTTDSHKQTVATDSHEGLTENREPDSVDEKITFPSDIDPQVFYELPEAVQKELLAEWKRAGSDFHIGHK

| Structure (SMILES) | Potency | activity, negative = inhibition |
| --- | --- | --- |
| c1ccc(-c2ccc3c(c2)NCCN3)cc1 | inconclusive: 56.2 µM [inhibitor, single point] | – |
| O=C(Nc1ccc(F)cc1F)c1cc2nc(-c3ccco3)cc(C(F)(F)Cl)n2n1 | inconclusive: 56.2 µM [inhibitor, partial curve, poor fit] | – |
| O=C1c2ccccc2NC(c2ccco2)N1/N=C/c1ccco1 (configuration not stated) | inconclusive: 11.2 µM [inhibitor, partial curve, poor fit] | – |
| CCC(C)NC(=O)CSc1nc2n[nH]c(C)c2c(=N)n1-c1ccc(C)c(Cl)c1 (configuration not stated) | inconclusive: 89.1 µM [inhibitor, single point] | – |
| O=C(Nc1nccs1)c1ccc(COc2ccc(F)cc2)o1 | inconclusive: 100 µM [inhibitor, partial curve, poor fit] | – |
| CC(C)(C)c1onc(OCP(=O)(O)O)c1CC(N)C(=O)O (configuration not stated) | – | inactive: -7.69% [at 58.9 µM] |
| Cc1ccc(-n2c(O)c(C=Nc3cc(C)on3)c3ccccc3c2=O)c(C)c1 | – | inactive: 1.65% |
| O=C(Nc1ccc2oc(-c3ccncc3)nc2c1)c1ccc([N+](=O)[O-])o1 | inconclusive: 50.1 µM [inhibitor, partial curve, poor fit] | – |
| CCN(CC)CCNC(=O)c1ccc(Cl)c(S(=O)(=O)N2CCCCCC2)c1 | inconclusive: 10 µM [inhibitor, partial curve] | – |
| CN(C)c1ncnc2c1NC1=C(S2)C(=NCCCC(=O)O)CC(C)(C)C1 | inconclusive: 15.8 µM [inhibitor, partial curve, poor fit] | – |
| Cc1cc(C)cc(NC(=O)CSc2nnc(-c3cc4occc4n3C)n2-c2ccccc2C)c1 | – | inactive: 24.3% |
| CC(=O)Nc1ccc(SCC(=O)c2ccc(Br)s2)cc1 | inconclusive: 22.4 µM [inhibitor, single point] | – |
| C#CCOCCOCCOCCNc1nc(N2CCN(C(=O)[C@H](CCCN=C(N)N)n3cc(C(N)[C@H](C)CC)nn3)CC2)nc(N2CCN(C(=O)[C@H](CC(N)=O)n3cc(C(N)[C@@H](C)CC)nn3)CC2)n1 (some centres not stated) | inconclusive: 28.2 µM [inhibitor, single point] | – |
| Cc1ccc(-c2noc(CN(C(=O)COc3cc(C)cc(C)c3C)C(C)C)n2)cc1 | – | inactive: 12.1% |
| CCCCNC(=O)CN1CCN(Cc2ccc3cc(OC)ccc3c2)CC1 | inconclusive: 56.2 µM [inhibitor, single point] | – |
| CC(C(=O)NCc1cccs1)n1cccc1 (configuration not stated) | inconclusive: 39.8 µM [inhibitor, single point] | – |
| CC1=C(C(=O)Nc2ccccc2)C(c2ccc(C)o2)N2C(=O)CSC2=N1 (configuration not stated) | inconclusive: 14.1 µM [inhibitor, full curve, poor fit] | – |
| CCN(CC(=O)Nc1ccc2c(c1)OCCO2)CC(=O)Nc1ccccc1C(F)(F)F | – | inactive: 15.4% |
| Cc1ccc(C)c2c(/C=C/c3ccc(N(C)C)cc3)ccnc12 | inconclusive: 79.4 µM [inhibitor, single point] | – |

| Structure (SMILES) | Potency | activity, negative = inhibition |
| --- | --- | --- |
| O=c1[nH]c(SCc2cccc(F)c2)nc2ccccc12 | inconclusive: 89.1 µM [inhibitor, single point] | – |
| O=C(CC(=O)c1ccccc1)CC(O)(C=Cc1ccccc1)c1ccccc1 (configuration not stated) | inconclusive: 11.2 µM [inhibitor, full curve, poor fit] | – |
| Cc1ccc(-c2nnc3sc(CCc4ccccc4)nn23)cc1 | inconclusive: 79.4 µM [inhibitor, partial curve, poor fit] | – |
| COc1ccc2nc(C)cc(SCC(=O)N/N=C/c3ccccc3)c2c1 | inconclusive: 50.1 µM [inhibitor, partial curve] | – |
| COc1cc(/C=C/c2[nH]c(=O)[nH]c(=O)c2[N+](=O)[O-])cc([N+](=O)[O-])c1O | inconclusive: 10 µM [inhibitor, partial curve, poor fit] | – |
| C#CCOCCOCCOCCNc1nc(N2CCOCC2)nc(N2CCN(C(=O)[C@H](CO)n3cc([C@@H](N)C(C)C)nn3)CC2)n1 | inconclusive: 39.8 µM [inhibitor, partial curve, poor fit] | – |
| O=C(c1ccccc1)N1CCC(=O)N1c1ccccc1 | inconclusive: 89.1 µM [inhibitor, partial curve, poor fit] | – |
| Cc1cc(C)c(NC(=O)c2ncoc2-c2ccco2)c(C)c1 | inconclusive: 89.1 µM [inhibitor, partial curve, poor fit] | – |
| CCc1ccc(-n2cccc2/C=C2/C(=N)N3C(=NC2=O)SN=C3S(C)(=O)=O)cc1 | inconclusive: 39.8 µM [inhibitor, single point] | – |
| Cc1ccccc1N1CC(C(=O)Nc2nnc(SCc3ccccn3)s2)CC1=O (configuration not stated) | inconclusive: 17.8 µM [inhibitor, full curve, poor fit] | – |
| CC(C)Sc1nc2sc3c(c2c2nnc(SCC(=O)NCc4ccco4)n12)CCCC3 | inconclusive: 0.794 µM [inhibitor, partial curve, poor fit] | – |
| CCOC(=O)c1ccc(/C=N/O)[n+](Cc2ccccc2)c1 | inconclusive: 44.7 µM [inhibitor, partial curve, poor fit] | – |
| CC[C@H]1C=C[C@@H](C(C(=O)OC)C(=O)OC)CN1C(C)=O | inconclusive: 22.4 µM [inhibitor, partial curve, poor fit] | – |
| S=c1[nH]nc(-c2ccccn2)n1/N=C/c1cccc(Cl)c1 | inconclusive: 89.1 µM [inhibitor, single point] | – |
| Cc1ccc2c(CC(=O)NCc3ccco3)coc2c1C | inconclusive: 12.6 µM [inhibitor, partial curve, poor fit] | – |
| CCOC(=O)c1cc(C#N)c(SCC(=O)c2cc(C#N)c(SC)nc2C)[nH]c1=O | inconclusive: 17.8 µM [inhibitor, full curve, poor fit] | – |
| COCCCNC(=O)C[C@H]1C[C@H](C(=O)N2CCOCC2)[C@@]2(CCC3CCCC3)c3[nH]c4cc(CCC(=O)N(C)C)ccc4c3CCN2C1=O | inconclusive: 0.631 µM [inhibitor, full curve, poor fit] | – |
| CCc1c(C)sc2c1CCN(C(=O)Nc1ccc(F)c(Cl)c1)C2c1ccc(F)cc1 (configuration not stated) | inconclusive: 89.1 µM [inhibitor, single point] | – |

Structures from the list above that contain an aryl methoxy group:

| Structure (SMILES) | Potency | activity, negative = inhibition |
| --- | --- | --- |
| CCCCNC(=O)CN1CCN(Cc2ccc3cc(OC)ccc3c2)CC1 | inconclusive: 56.2 µM [inhibitor, single point] | – |
| COc1ccc2nc(C)cc(SCC(=O)N/N=C/c3ccccc3)c2c1 | inconclusive: 50.1 µM [inhibitor, partial curve] | – |
| COc1cc(/C=C/c2[nH]c(=O)[nH]c(=O)c2[N+](=O)[O-])cc([N+](=O)[O-])c1O | inconclusive: 10 µM [inhibitor, partial curve, poor fit] | – |

From PubChem BioAssay AID588590 (National Center for Advancing Translational Sciences (NCATS), 2011)
